From PubChem BioAssay record AID1347108 (NCATS, 2019).

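Living Rh41 pediatric muscle-tumor cells are counted by ATP-driven light output after two days of compound treatment. Compounds were run as 8- or 11-point dilution series reaching a top final concentration of 46 µM. The number is the fitted potency (AC50, nM) for loss of viability, and lower values mean a more potent cytotoxic compound. Calls come from curve class and activity score: active scores 40-100 for well-fitted killing curves, inconclusive scores 1-39 for weak, partial, poorly fitted or top-dose-only curves.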

Values are in nM. All entries here are filed as inconclusive. Only part of the assay is shown, chiefly results filed as inconclusive. A potency from a partial, single-point or poor curve is only a rough figure. Some entries filed as inconclusive have a full curve. Activity scores are not listed here.

structure	fitted potency (nM)	remark
CC[C@H]1OC(=O)[C@H](C)C(=O)[C@H](C)[C@@H](O[C@H]2O[C@H](C)C[C@H](N(C)C)[C@@H]2O)[C@](C)(OC)C[C@@H](C)C(=O)[C@H](C)[C@H]2N(CCCCn3cnc(-c4cccnc4)c3)C(=O)O[C@]12C	18654	cytotoxic, partial curve
C[C@H](CCC(=O)O)[C@H]1CC[C@H]2[C@H]3[C@@H](CC[C@]12C)[C@@]1(C)CC[C@@H](O)C[C@H]1C[C@@H]3O	20930	cytotoxic, partial curve, poor fit
CCCCC(CC)COC(=O)C(C#N)=C(c1ccccc1)c1ccccc1 (centres unmarked)	13335	cytotoxic, single point
CC(C)c1ccc2c(c1)c(SC(C)(C)C)c(CC(C)(C)C(=O)O)n2Cc1ccc(Cl)cc1	1663	cytotoxic, partial curve
N#Cc1cc(NC(=O)Nc2nnc(-c3ccncc3)s2)ccc1-c1cn[nH]c1	9350	cytotoxic, partial curve, poor fit
COc1cc(C(C)C)c(Oc2cnc(NC(CO)CO)nc2N)cc1I	2957	cytotoxic, full curve, poor fit
O=C(c1ccccc1)c1ccc2n1CCC2C(=O)O (centres unmarked)	20930	cytotoxic, partial curve, poor fit
CN(C)c1ccc(C2Nc3ccc4ccccc4c3C3=C2C(=O)CC(C)(C)C3)cc1Br (centres unmarked)	14817	cytotoxic, partial curve
CNC(=O)c1ccc(C)c(-n2c(C)cc(OCc3ccc(F)cc3F)c(Br)c2=O)c1	10490	cytotoxic, partial curve
Cc1c(C(=O)O)c(O)cc2c1C(=O)c1c(O)c([C@@H]3O[C@H](CO)[C@@H](O)[C@H](O)[C@H]3O)c(O)c(O)c1C2=O	29855	cytotoxic, single point
Cc1ccccc1C(C(=O)NC1CCCC1)N(C(=O)Cn1cnc2ccccc21)c1cccc(F)c1 (centres unmarked)	14817	cytotoxic, partial curve
CCN(CC)CCCC(C)Nc1c2ccc(Cl)cc2nc2ccc(OC)cc12 (centres unmarked)	13335	cytotoxic, partial curve
O=c1c(O)c(-c2cc(O)c(O)c(O)c2)oc2cc(O)cc(O)c12	8333	cytotoxic, partial curve
CN1CCN(CCOc2cc(OC3CCOCC3)c3c(Nc4c(Cl)ccc5c4OCO5)ncnc3c2)CC1	5258	cytotoxic, partial curve
COc1cc2nc(N3CCN(C(=O)c4ccco4)CC3)nc(N)c2cc1OC	23484	cytotoxic, single point
Clc1ccc(C2(c3ccc(-c4cn[nH]c4)cc3)CCNCC2)cc1	6619	cytotoxic, partial curve
CN(C)CCCC1(c2ccc(F)cc2)OCc2cc(C#N)ccc21 (centres unmarked)	14817	cytotoxic, partial curve
OCCN1CCN(CCCN2c3ccccc3Sc3ccc(C(F)(F)F)cc32)CC1	20930	cytotoxic, single point
Nc1nc(=S)c2[nH]cnc2[nH]1	5957	cytotoxic, full curve
CC(C)(C)c1ccc(C(=O)CCCN2CCC(OC(c3ccccc3)c3ccccc3)CC2)cc1	21136	cytotoxic, single point
CC(=O)O[C@]1(C(C)=O)CC[C@@H]2[C@@H]3C[C@H](C)C4=CC(=O)CC[C@]4(C)[C@H]3CC[C@@]21C	18654	cytotoxic, partial curve
COc1cc(C)c(C=CC(C)=CC=CC(C)=CC(=O)O)c(C)c1C	7427	cytotoxic, partial curve
CC(C)n1cnc2c(NCCCCCCNC(=O)OC(C)(C)C)nc(NCCO)nc21	6619	cytotoxic, partial curve
COCCOC(=O)C1=C(C)NC2=C(C(=O)CC(c3ccccc3OC)C2)C1c1cccc(O)c1 (centres unmarked)	18654	cytotoxic, partial curve
c1ccc2c(c1)Sc1ccccc1N2CC1CN2CCC1CC2 (centres unmarked)	29855	cytotoxic, single point
NC(=O)c1cnc(-c2ccc(C3(N)CCC3)cc2)c(-c2ccccc2)c1	5899	cytotoxic, partial curve
O=C1Nc2ccc(Cl)cc2C(C#CC2CC2)(C(F)(F)F)O1 (centres unmarked)	23484	cytotoxic, single point
CN(C)c1ccc(O)c2c1C[C@H]1C[C@H]3[C@H](N(C)C)C(=O)C(C(N)=O)=C(O)[C@@]3(O)C(=O)C1=C2O	14817	cytotoxic, partial curve
CCC(=O)N[C@H]1CC[C@H](C(=O)N(C)c2ccc(-c3nc4ccccc4o3)cc2)C1	16626	cytotoxic, partial curve
COc1ccc(CCN(C)CCCOc2ccc(S(=O)(=O)c3[nH]c4ccccc4c3C(C)C)cc2)cc1OC	14817	cytotoxic, partial curve
COc1cc(C(C)=O)ccc1OCCCN1CCC(c2noc3cc(F)ccc23)CC1	18654	cytotoxic, partial curve, poor fit
CC(NCCC(c1ccccc1)c1ccccc1)c1ccccc1 (centres unmarked)	26608	cytotoxic, single point
COc1ccc(C(=O)c2c(C)n(CCN3CCOCC3)c3ccccc23)cc1	16788	cytotoxic, partial curve, poor fit
CN(C(Cc1ccc(OS(=O)(=O)c2cccc3cnccc23)cc1)C(=O)N1CCN(c2ccccc2)CC1)S(=O)(=O)c1cccc2cnccc12 (centres unmarked)	14817	cytotoxic, partial curve
CC(=O)Oc1cc2c(s1)CCN(C(C(=O)C1CC1)c1ccccc1F)C2 (centres unmarked)	2957	cytotoxic, full curve
Cc1csc(NC(=O)c2sc3nc4c(c(C(F)(F)F)c3c2N)CCC4)n1	18654	cytotoxic, single point
C[C@@H]1CC=CC=CC=CC=C[C@@H](O[C@@H]2O[C@H](C)[C@@H](O)[C@H](N)[C@H]2O)C[C@@H]2O[C@](O)(C[C@@H](O)C[C@@H]3O[C@@H]3C=CC(=O)O1)C[C@H](O)[C@@H]2C(=O)O	10490	cytotoxic, partial curve
CN(C)CCC=C1c2ccccc2C=Cc2ccccc21	16626	cytotoxic, partial curve, poor fit
CNCCCC12CCC(c3ccccc31)c1ccccc12	20930	cytotoxic, partial curve
O=c1cc(CN2CCOCC2)occ1OCCCCCSc1ccnc2cc(C(F)(F)F)ccc12	5899	cytotoxic, partial curve
CCCCc1oc2ccccc2c1C(=O)c1cc(I)c(OCCN(CC)CC)c(I)c1	14817	cytotoxic, partial curve
CC(=O)O[C@]1(C(C)=O)CC[C@H]2[C@@H]3C=C(Cl)C4=CC(=O)[C@@H]5C[C@H]5[C@]4(C)[C@@H]3CC[C@@]21C	29565	cytotoxic, single point
CN1CCN(C2Cc3ccccc3Sc3ccc(Cl)cc32)CC1 (centres unmarked)	18837	cytotoxic, single point
Cc1nc(Nc2ncc(C(=O)Nc3c(C)cccc3Cl)s2)cc(N2CCN(CCO)CC2)n1	13206	cytotoxic, partial curve
CC[C@@H]([C@H](C)O)n1ncn(-c2ccc(N3CCN(c4ccc(OCC5CO[C@@](Cn6cncn6)(c6ccc(F)cc6F)C5)cc4)CC3)cc2)c1=O (some centres unmarked)	18654	cytotoxic, partial curve
CCCSc1ccc2nc(NC(=O)OC)[nH]c2c1	1334	cytotoxic, full curve
CC(C)Oc1ccc2c(=O)c(-c3ccccc3)coc2c1	16626	cytotoxic, partial curve
O=C(O)C1CCCN(CCC=C(c2ccccc2)c2ccccc2)C1 (centres unmarked)	20930	cytotoxic, partial curve